Measured values as given in paper PMC6868236.

Protein sequences, listed by entry. Tags and fused reporters are not part of them.
UniProt Q9HFE8: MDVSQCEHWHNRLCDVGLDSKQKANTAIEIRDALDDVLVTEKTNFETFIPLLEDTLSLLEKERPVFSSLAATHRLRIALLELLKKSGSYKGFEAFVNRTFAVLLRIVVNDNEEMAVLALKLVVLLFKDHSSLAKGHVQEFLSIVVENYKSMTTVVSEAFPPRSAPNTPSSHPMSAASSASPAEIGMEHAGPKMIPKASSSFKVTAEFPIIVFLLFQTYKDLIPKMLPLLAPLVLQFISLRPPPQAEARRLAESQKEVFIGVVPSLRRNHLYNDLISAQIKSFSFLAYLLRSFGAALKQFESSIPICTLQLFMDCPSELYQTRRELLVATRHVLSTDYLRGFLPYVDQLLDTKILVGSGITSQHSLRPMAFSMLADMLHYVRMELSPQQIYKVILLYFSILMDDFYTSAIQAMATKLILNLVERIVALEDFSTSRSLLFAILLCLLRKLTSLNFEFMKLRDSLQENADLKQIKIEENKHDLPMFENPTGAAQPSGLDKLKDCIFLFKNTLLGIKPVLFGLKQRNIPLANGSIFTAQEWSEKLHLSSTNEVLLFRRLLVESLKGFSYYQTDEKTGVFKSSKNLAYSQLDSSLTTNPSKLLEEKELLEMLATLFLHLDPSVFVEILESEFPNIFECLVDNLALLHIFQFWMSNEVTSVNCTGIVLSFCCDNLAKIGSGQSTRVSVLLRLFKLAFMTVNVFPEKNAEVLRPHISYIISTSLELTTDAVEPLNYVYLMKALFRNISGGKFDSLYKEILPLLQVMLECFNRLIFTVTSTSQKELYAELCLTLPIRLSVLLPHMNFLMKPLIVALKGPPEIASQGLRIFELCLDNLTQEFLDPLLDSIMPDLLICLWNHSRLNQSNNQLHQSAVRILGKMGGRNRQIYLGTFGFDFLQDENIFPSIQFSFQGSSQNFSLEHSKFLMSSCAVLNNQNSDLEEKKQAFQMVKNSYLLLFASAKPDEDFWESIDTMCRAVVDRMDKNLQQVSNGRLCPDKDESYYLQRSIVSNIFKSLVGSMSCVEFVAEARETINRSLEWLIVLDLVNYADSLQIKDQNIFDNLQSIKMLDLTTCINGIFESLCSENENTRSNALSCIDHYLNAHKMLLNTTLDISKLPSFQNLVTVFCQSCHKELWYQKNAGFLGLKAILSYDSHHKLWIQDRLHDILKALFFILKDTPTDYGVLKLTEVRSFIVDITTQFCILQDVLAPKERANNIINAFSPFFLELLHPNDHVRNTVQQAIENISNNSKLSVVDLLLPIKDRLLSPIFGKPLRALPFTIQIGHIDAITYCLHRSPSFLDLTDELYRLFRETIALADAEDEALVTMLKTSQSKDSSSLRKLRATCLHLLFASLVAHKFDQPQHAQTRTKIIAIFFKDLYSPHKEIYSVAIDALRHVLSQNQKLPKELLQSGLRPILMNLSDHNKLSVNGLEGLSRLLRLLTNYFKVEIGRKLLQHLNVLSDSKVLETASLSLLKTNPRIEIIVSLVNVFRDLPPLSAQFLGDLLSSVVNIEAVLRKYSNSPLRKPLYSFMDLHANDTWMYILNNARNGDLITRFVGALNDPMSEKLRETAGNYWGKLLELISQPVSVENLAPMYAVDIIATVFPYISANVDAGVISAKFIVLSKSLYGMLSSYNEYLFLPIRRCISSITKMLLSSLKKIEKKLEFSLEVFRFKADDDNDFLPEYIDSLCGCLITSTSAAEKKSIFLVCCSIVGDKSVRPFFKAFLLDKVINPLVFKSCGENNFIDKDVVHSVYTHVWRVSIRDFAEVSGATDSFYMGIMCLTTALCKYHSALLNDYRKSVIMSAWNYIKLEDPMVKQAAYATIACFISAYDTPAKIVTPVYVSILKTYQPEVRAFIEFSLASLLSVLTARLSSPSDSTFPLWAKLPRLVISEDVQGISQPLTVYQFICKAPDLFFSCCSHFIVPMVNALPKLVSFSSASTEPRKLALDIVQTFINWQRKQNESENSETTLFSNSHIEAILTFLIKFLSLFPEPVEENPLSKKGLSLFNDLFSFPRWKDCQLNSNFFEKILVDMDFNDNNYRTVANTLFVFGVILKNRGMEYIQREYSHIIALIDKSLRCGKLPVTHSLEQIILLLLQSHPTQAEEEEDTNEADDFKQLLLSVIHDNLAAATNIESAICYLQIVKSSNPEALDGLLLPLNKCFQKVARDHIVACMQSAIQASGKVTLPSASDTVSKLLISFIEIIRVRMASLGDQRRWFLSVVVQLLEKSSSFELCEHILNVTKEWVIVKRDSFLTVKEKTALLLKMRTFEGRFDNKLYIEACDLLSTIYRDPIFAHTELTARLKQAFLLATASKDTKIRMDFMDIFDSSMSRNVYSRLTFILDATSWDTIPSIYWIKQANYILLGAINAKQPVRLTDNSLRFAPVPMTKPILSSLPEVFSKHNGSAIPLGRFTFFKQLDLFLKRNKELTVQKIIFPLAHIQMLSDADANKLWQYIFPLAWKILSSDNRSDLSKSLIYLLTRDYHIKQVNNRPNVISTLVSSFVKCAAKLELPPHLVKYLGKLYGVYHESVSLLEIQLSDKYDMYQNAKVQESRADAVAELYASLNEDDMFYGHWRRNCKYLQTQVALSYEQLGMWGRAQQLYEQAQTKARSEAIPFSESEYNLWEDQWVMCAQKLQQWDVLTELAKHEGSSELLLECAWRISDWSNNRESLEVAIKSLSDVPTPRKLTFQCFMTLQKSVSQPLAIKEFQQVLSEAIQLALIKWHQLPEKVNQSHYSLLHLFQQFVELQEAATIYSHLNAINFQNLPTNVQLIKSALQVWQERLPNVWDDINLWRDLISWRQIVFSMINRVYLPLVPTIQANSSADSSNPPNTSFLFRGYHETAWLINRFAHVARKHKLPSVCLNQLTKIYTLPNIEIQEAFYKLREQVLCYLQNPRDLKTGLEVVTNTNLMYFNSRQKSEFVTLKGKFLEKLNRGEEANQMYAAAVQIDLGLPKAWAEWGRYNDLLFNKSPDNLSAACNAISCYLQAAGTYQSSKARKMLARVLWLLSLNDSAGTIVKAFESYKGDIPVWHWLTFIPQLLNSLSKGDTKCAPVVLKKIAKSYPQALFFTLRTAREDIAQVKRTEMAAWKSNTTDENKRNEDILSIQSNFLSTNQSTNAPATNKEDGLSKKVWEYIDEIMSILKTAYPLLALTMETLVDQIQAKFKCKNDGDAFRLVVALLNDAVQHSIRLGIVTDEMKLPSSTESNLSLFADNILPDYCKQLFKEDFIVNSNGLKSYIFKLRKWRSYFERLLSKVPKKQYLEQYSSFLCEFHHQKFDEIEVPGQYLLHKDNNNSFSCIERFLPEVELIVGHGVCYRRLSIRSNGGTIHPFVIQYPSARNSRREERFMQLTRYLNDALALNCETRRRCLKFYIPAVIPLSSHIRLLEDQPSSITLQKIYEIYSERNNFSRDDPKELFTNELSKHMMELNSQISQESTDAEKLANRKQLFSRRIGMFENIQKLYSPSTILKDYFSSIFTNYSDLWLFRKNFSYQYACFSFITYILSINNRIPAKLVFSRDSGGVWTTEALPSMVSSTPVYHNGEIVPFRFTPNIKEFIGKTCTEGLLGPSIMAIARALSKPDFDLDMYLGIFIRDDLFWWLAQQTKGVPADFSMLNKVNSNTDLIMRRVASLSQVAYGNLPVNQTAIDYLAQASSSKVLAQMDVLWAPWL

How the values were obtained:
[1] = target: T1, Spt20 (S. cerevisiae, wild type) (S. cerevisiae) (UniProt P50875); assay: affinity purification with mass spectrometry; tandem affinity purification of S. cerevisiae SAGA by HA-Spt7-TAP from WT and spt20 truncation mutants, silver staining and LFQ LC-MS/MS (Tra1 normalised to Spt7)
T1 sequence: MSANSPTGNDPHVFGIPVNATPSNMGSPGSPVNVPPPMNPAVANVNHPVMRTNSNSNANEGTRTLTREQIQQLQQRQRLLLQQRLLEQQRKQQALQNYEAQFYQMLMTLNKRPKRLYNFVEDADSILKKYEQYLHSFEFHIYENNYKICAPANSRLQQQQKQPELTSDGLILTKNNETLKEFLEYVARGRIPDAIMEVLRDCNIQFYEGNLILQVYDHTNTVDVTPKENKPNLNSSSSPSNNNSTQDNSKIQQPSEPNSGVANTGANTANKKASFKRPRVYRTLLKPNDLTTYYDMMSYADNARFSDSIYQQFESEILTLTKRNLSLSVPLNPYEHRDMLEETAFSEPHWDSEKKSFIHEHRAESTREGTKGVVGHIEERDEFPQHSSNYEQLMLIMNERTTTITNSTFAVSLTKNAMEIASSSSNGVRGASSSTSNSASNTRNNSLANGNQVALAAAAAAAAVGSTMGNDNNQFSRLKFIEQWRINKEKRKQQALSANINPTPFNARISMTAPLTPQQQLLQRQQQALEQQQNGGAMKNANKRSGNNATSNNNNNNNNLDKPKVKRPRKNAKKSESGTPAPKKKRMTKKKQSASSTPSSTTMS

[2] = target: T2, Spt20-492 (S. cerevisiae Spt20 truncation, V5-tagged) (S. cerevisiae) (UniProt P50875); assay: as above
T2 sequence: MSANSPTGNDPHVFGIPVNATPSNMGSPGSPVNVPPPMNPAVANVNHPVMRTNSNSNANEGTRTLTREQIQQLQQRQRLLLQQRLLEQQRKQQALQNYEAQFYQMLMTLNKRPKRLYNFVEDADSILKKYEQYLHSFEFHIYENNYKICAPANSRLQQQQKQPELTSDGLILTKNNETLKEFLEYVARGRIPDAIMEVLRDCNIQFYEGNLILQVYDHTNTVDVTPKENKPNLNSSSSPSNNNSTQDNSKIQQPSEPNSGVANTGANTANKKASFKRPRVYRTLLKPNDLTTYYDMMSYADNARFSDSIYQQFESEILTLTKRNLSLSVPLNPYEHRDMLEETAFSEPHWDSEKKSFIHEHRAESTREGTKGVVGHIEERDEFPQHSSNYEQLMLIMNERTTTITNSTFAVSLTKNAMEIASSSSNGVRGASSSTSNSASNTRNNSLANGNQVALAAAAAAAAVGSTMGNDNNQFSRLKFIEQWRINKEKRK

[3] = target: T3, Tti2-TAP (S. pombe) (S. pombe) (UniProt O94729); assay: affinity purification with mass spectrometry; tandem affinity purification of Tti2 from S. pombe extracts, LC-MS/MS with label-free quantification, TAP against no-TAP samples
T3 sequence: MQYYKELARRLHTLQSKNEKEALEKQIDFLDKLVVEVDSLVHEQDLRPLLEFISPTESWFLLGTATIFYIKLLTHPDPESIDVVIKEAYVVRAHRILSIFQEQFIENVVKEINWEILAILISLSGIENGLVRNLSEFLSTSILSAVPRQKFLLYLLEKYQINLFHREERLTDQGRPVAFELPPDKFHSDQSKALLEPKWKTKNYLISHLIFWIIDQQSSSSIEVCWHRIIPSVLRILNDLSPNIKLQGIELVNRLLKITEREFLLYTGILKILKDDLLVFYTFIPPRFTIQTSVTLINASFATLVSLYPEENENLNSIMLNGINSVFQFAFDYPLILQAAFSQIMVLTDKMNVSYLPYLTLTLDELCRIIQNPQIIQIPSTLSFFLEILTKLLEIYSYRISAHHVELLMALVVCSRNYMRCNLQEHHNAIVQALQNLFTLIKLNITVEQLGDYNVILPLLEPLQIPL

[4] = target: Spt20-RRKR (S. pombe Spt20 with the four RRKR residues of the HIT region mutated) (S. pombe) (UniProt O14174); assay: affinity purification with mass spectrometry; tandem affinity purification of SAGA by Spt7-TAP from S. pombe extracts (WEB or CLB buffer), EGTA eluates, silver staining and LFQ LC-MS/MS (prey to bait ratio); wild-type, tra1 hybrid and spt20 mutant strains; also tti2-CKO with DMSO or β-estradiol, RI-tra1, tel2-AID and hsp90 mutant strains
[5] = target: T4, Spt20 (S. pombe) (S. pombe) (UniProt O14174); assay: as above
T4 sequence: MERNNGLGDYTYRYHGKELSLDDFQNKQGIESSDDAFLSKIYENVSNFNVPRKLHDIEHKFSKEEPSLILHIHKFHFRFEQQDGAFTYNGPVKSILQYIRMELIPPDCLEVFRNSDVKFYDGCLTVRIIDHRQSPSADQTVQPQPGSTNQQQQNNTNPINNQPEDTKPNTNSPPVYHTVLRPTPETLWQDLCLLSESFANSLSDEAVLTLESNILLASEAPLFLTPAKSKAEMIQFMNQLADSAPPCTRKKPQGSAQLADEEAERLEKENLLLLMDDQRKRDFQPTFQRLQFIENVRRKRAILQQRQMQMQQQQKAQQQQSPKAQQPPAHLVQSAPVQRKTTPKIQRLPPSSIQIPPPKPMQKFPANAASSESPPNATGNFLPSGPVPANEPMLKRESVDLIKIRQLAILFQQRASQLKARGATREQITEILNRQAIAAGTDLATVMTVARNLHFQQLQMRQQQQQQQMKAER

[6] = target: T5, Spt20-290 (S. pombe Spt20 truncation, residues 291-474 deleted) (S. pombe) (UniProt O14174); assay: as above
T5 sequence: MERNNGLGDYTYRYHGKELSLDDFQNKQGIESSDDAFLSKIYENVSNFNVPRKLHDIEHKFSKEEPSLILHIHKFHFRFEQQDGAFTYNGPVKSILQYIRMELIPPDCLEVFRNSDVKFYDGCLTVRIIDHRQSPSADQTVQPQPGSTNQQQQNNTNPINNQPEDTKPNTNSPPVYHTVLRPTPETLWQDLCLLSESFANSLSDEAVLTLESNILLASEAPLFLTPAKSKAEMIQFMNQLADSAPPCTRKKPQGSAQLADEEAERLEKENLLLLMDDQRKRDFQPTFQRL

[7] = target: T6, Spt20-300 (S. pombe Spt20 truncation, residues 301-474 deleted) (S. pombe) (UniProt O14174); assay: as above
T6 sequence: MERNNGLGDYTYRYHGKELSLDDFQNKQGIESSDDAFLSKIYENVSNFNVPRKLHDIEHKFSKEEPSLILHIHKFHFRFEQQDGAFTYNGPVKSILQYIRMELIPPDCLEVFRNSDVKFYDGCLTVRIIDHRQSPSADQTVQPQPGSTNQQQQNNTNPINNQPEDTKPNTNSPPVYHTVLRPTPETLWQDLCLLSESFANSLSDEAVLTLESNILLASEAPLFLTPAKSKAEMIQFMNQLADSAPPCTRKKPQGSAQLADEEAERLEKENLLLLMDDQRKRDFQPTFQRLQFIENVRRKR

Row | binding [1] | binding [2] | binding [3] | binding [4] | binding [5] | binding [7] | Substance | binding [6]
1 | binds | binds |  |  |  |  | Tra1 (S. cerevisiae) (from UniProt P38811 1-3744) | 
2 |  |  | binds | binds | binds | binds | Tra1 (S. pombe) (from UniProt Q9HFE8 1-3661) | no binding (tested: ND: not detected or <1% of WT)

These are yes or no findings as the source states them, for the method shown. In cells and extracts the contact can be indirect. These calls come from enrichment with a bait or labelling near it, and not all partners need be listed. For some of these results: No binding means not detected with the bait. For some of these results: Sequences can lack the tags named with a protein.
